Results deposited as PubChem BioAssay AID652243 (Drosophila RNAi Screening Center, 2013)

Aim: 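Knock-downs that decrease or increase androgen receptor reporter signal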 (primary screen)
Cells: Drosophila S2R+ cells
Reagent: long dsRNA against Drosophila genes
Time to read-out: 72 h (48 h, then 24 h hormone)
Challenge: synthetic androgen R1881 at 10 nM for 24 h
Detection: 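Per-well raw luminescence of the androgen-driven firefly reporter and of the Renilla control, two replicates each, without normalisation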
Reading the numbers: firefly reporter light: higher = more light from androgen-responsive reporter; Renilla control light: higher = more constitutive control signal (cell number, transfection)
Hit rule: 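Hit when the log firefly-to-Renilla ratio dropped or increased by a fixed fold versus the mean of GFP or LacZ controls across duplicate plates; lowering cut given as 1.5 and as 3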
Calls: active = hit: reporter lowered or raised; inactive = no hit
The deposit covers about 24,000 reagents; below is an unselected part of those that have a named target and a result. Over the whole deposit, 246 (1%) were called active. 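Plates not normalised; calls are printed but the firefly/Renilla ratio behind them is not deposited; fold cut for lowering reported inconsistently.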 The raw values are shown without normalisation. Reagents against one gene are numbered here. Not given: the amount of reagent.

For Slc25A46b, what was measured?
firefly reporter light, replicate 1: 1.33e5; firefly reporter light, replicate 2: 1.33e5; Renilla control light, replicate 1: 1.16e6; Renilla control light, replicate 2: 1.70e6; call: inactive

How did the screen score Atg12 (Autophagy-related 12)?
firefly reporter light, replicate 1: 3.37e5; firefly reporter light, replicate 2: 2.71e5; Renilla control light, replicate 1: 3.57e6; Renilla control light, replicate 2: 2.89e6; call: inactive

How did the screen score CG16711 #1?
firefly reporter light, replicate 1: 1.91e5; firefly reporter light, replicate 2: 1.74e5; Renilla control light, replicate 1: 1.76e6; Renilla control light, replicate 2: 1.53e6; call: inactive

What is on record for CG16711 #2?
firefly reporter light, replicate 1: 7.65e5; firefly reporter light, replicate 2: 9.74e5; Renilla control light, replicate 1: 8.75e5; Renilla control light, replicate 2: 7.84e5; call: inactive

How did the screen score Mcm6 (Minichromosome maintenance 6) #1?
firefly reporter light, replicate 1: 1.15e5; firefly reporter light, replicate 2: 49275; Renilla control light, replicate 1: 4.78e5; Renilla control light, replicate 2: 2.67e5; call: inactive

What did the screen give for Mcm6 (Minichromosome maintenance 6) #2?
firefly reporter light, replicate 1: 5.12e5; firefly reporter light, replicate 2: 4.25e5; Renilla control light, replicate 1: 5.12e5; Renilla control light, replicate 2: 3.82e5; call: inactive

For Cpr65Au (Cuticular protein 65Au), how do the results read?
firefly reporter light, replicate 1: 9.60e5; firefly reporter light, replicate 2: 8.91e5; Renilla control light, replicate 1: 1.33e6; Renilla control light, replicate 2: 9.07e5; call: inactive

What is on record for Spred (Sprouty-related protein with EVH-1 domain) #1?
firefly reporter light, replicate 1: 1.54e6; firefly reporter light, replicate 2: 7.95e5; Renilla control light, replicate 1: 3.05e6; Renilla control light, replicate 2: 1.95e6; call: inactive

What did the screen give for Spred (Sprouty-related protein with EVH-1 domain) #2?
firefly reporter light, replicate 1: 7.03e5; firefly reporter light, replicate 2: 4.07e5; Renilla control light, replicate 1: 6.74e5; Renilla control light, replicate 2: 3.79e5; call: inactive

What did the screen give for Spred (Sprouty-related protein with EVH-1 domain) #3?
call: inactive

For zld (zelda) #1, what does the deposit list?
firefly reporter light, replicate 1: 6.03e5; firefly reporter light, replicate 2: 6.96e5; Renilla control light, replicate 1: 9.56e5; Renilla control light, replicate 2: 1.27e6; call: inactive

What did the screen give for zld (zelda) #2?
firefly reporter light, replicate 1: 4.31e5; firefly reporter light, replicate 2: 3.58e5; Renilla control light, replicate 1: 1.08e6; Renilla control light, replicate 2: 5.48e5; call: inactive

2 of these entries, set out differently:
CG16711 #1
- firefly reporter light, replicate 1: 1.91e5
- firefly reporter light, replicate 2: 1.74e5
- Renilla control light, replicate 1: 1.76e6
- Renilla control light, replicate 2: 1.53e6
- call: inactive

CG16711 #2
- firefly reporter light, replicate 1: 7.65e5
- firefly reporter light, replicate 2: 9.74e5
- Renilla control light, replicate 1: 8.75e5
- Renilla control light, replicate 2: 7.84e5
- call: inactive
